{
  "sequences": {"note": "By UniProt entry, the sequences of proteins in these tests, tags left out. Where a name states a change or a piece, a line headed by the entry shows the natural chain unless it says otherwise. Residues count along the entry.", "UniProt P03951": "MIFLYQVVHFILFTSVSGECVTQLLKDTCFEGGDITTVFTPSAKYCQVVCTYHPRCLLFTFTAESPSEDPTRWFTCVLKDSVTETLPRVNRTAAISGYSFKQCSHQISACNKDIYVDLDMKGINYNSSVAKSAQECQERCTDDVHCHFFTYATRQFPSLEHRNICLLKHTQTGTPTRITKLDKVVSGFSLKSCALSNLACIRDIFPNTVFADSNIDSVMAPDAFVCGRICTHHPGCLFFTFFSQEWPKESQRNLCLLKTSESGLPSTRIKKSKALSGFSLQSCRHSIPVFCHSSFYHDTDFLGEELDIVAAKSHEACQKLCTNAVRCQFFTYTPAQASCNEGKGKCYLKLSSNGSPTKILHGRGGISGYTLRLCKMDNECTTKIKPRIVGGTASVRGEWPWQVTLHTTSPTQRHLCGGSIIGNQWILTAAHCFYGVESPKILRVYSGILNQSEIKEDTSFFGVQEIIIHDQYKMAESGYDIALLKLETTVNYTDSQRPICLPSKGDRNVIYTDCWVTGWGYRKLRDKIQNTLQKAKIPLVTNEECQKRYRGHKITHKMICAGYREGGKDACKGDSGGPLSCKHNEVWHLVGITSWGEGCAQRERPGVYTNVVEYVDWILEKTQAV", "UniProt P01008, residues 33-464": "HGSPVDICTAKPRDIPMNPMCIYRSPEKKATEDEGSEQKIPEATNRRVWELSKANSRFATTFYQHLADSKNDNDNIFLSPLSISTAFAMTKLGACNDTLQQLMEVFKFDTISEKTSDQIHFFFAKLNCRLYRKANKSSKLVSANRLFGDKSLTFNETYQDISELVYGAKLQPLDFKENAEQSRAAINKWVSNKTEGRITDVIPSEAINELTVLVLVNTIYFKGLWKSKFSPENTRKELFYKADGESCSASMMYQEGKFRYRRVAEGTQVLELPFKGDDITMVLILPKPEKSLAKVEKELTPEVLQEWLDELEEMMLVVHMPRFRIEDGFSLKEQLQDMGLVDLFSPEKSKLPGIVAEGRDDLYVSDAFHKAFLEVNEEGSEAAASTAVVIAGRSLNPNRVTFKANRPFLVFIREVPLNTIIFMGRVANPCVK"},
  "source": "paper PMC5437010",
  "target": "Factor XIa (human) (UniProt P03951)",
  "assay": "condition: only with 10 uM FELIAP (DNA aptamer against FXIa); SDS-PAGE of a denaturation-resistant covalent complex; 200 nM FXIa pre-incubated with 10 uM FELIAP (DNA aptamer) at 37 °C for 5 min, then 2 uM antithrombin and 2 U/mL sodium heparin for 1 or 5 min; reduced SDS-PAGE, Coomassie stain; both purified",
  "note": "Results are given in words; binding and its absence hold for the method and conditions named.",
  "data": [
    {"substance": "antithrombin (from UniProt P01008 33-464)", "values": [
      {"measurement": "binding", "value": "no binding"}
    ]}
  ]
}
